Data: the supplement of paper PMC8497498
The list shows a part of the results. The data scatter; read single values as rough.

Columns and labels:
Settings in all cases: 10 µM
[1] = system: Plasmodium vivax liver stage (primary human hepatocyte culture); experiment: hypnozoite quantity inhibition (% inhibition); higher = more active against hypnozoites
[2] = system: Plasmodium vivax liver stage (primary human hepatocyte culture); experiment: schizont net growth area inhibition (% inhibition); higher = more active against liver schizonts
[3] = system: primary human hepatocytes; experiment: hepatic nuclei reduction relative to DMSO (100 - % of negative control); higher = more toxic to hepatocytes
[4] = assay mode: Prophylactic (treated before or shortly after infection), fixed day 6 post-infection
[5] = assay mode: Radical Cure (treated from day 5 post-infection for 3 days), fixed day 8 post-infection

| Structure (SMILES) | hypnozoite quantity inhibition [1, 4] | hypnozoite quantity inhibition [1, 5] | schizont net growth area inhibition [2, 4] | schizont net growth area inhibition [2, 5] | hepatic nuclei reduction [3, 4] [%] | hepatic nuclei reduction [3, 5] [%] |
| --- | --- | --- | --- | --- | --- | --- |
| Cc1cc(Cl)c(S(=O)(=O)N2CCCC2)cc1OCC(=O)NC1CCCCC1 | 27 | 22 | 27.4 | -17.3 | 2 | -4 |
| CNc1snc(C)c1C(=O)NCCOc1ccc(OC)cc1 | -41 | 6 | 65.9 | -116 | -9 | 0 |
| CCC[C@@H]1C[C@@H](C(=O)N[C@@H]([C@H]2O[C@H](SC)[C@H](O)[C@@H](O)[C@H]2O)[C@H](C)Cl)N(C)C1 | -22 | 23 | 24.4 | 32.7 | -6 | -3 |
| c1ccc(Oc2ccc(-c3cc(N4CCNCC4)[nH]n3)cc2)cc1 | 34 | -51 | -115 | 20.2 | 2 | 3 |
| CC(C)C(NC(=O)Cc1cccc2ccccc12)C(=O)Nc1cccc(C#N)c1 (stereo not given) | 13 | -10 | 17.6 | -140 | -6 | 0 |
| CO[C@H]1/C=C/O[C@@]2(C)Oc3c(C)c(O)c4c(O)c(c(/C=N/N5CCN(C)CC5)c(O)c4c3C2=O)NC(=O)/C(C)=C\C=C\[C@@H](C)[C@@H](O)[C@@H](C)[C@H](O)[C@H](C)[C@@H](OC(C)=O)[C@H]1C | 0 | 14 | -94.2 | 12.2 | -5 | 6 |
| c1cncc(NCc2ccc(-c3cc4ccncc4cc3OC3CCNCC3)s2)c1 | 14 | -130 | 35.8 | -131 | -1 | -11 |
| Cc1c(Oc2cnc(C(=O)N3CC(C)(O)C3)cn2)ccc2c1B(O)OC2 | 27 | 18 | 102 | 24.8 | -7 | -7 |
| OC(CNC1CCCC1)Cn1c2ccccc2c2ccccc21 (stereo not given) | 69.5 | 29.2 | 45.8 | -51.1 | 6 | -8 |
| O=C(Nc1ccsc1C(=O)NC1CCCCC1)c1ccc(F)cc1 | -26.6 | 8.4 | -33.2 | 29.9 | -4 | -5 |
| O=C(NCCN1CCCC1)c1cc(-c2ccc(CN3CCOCC3)cc2)nc2ccc(F)cc12 | 84 | 12 | 102 | 83.6 | 0 | -3 |
| c1ccc2c(NCCc3c[nH]c4ccccc34)c3ccccc3nc2c1 | 43 | 26.5 | 100 | -69.4 | 11 | -4 |
| O=C(NC1CC1)c1ccc(N2CCC(Cc3ccccc3)CC2)nc1 | 32 | -25 | 21.8 | -77.2 | 11 | 2 |
| Cc1cc(Nc2cccc(F)c2)nc(NCc2ccccc2)n1 | -21.4 | 47.3 | -1.4 | 3.7 | -10 | -5 |
| COc1ccc(C(=O)C(CCC(CNC(C)(C)C)C(=O)c2ccc(OC)cc2)CNC(C)(C)C)cc1 (stereo not given) | -2 | 67.9 | 42.9 | -69.2 | -3 | 10 |
| Nc1ncnc2c1c(Cc1cccc3ccccc13)nn2CC1CCNCC1 | -13 | 55 | -75.4 | 47.2 | 1 | 4 |
| Cc1c(C)n(CC(O)CNC2CCCCC2C)c2ccccc12 (stereo not given) | -20.9 | -68.9 | 6 | -33.6 | 0 | -15 |
| NCCC(O)C(=O)N[C@@H]1C[C@H](N)[C@@H](OC2O[C@H](CN)[C@@H](O)[C@H](O)[C@H]2O)[C@H](O)C1OC1O[C@H](CO)[C@@H](O)[C@H](N)[C@H]1O (stereo not given in full) | -47 | -34 | -68.6 | 21.4 | -11 | 3 |
| N#Cc1ccc(-c2cnc(N)c(-c3ccc(C(N)=O)cc3)n2)cc1 | 113 | -24 | 106 | 97.2 | -4 | -6 |
| O=C(NNc1cc(N2CCCC2)nc(N2CCCC2)n1)c1ccccc1 | -12.6 | -11.7 | 33.6 | 40.8 | -1 | -13 |
| COc1ccc(CN2CCCC(C(=O)c3ccc(C(F)(F)F)cc3)C2)c(O)c1 (stereo not given) | -32.2 | -33.5 | -11.3 | 20.2 | -3 | -5 |
| FC(F)(F)c1cnc(Sc2nnc(-c3ccncc3)o2)c(Cl)c1 | -45 | -43 | 27.8 | -22.2 | -10 | 0 |
| CC1CCC2C(C)C(O)OC3OC4(C)CCC1C32O4 (stereo not given) | 14 | -9 | -17.4 | -68 | -6 | -5 |
| COC(=O)c1c(NC(=O)c2c(F)c(F)c(F)c(F)c2F)sc2c1CCCCC2 | 0 | -25 | -3.5 | -39.3 | 8 | -2 |
| CC1CS(=O)(=O)CCN1/N=C/c1ccc([N+](=O)[O-])o1 (stereo not given) | -3 | -48 | -10.6 | 36.8 | -2 | -4 |
| OC(c1cc(C(F)(F)F)nc2c(C(F)(F)F)cccc12)C1CCCCN1 (racemic) | 19 | 41 | 55.7 | 85.3 | -4 | 12 |
| O=C(c1ccc(F)cc1)N(CCNc1ccccc1)c1ccccc1 | 36 | -7 | 9.8 | -114 | -4 | -10 |
| COc1ccc2c(c1)C1(Nc3ccccc3-c3nc4ccccc4n31)C(=O)N2 (stereo not given) | 19 | -63.4 | 67.9 | -107 | -6 | -13 |
| Cc1ccc2[nH]c3c(NCCN(C)C)ncnc3c2c1 | 24 | -57 | 47 | -191 | 0 | -5 |
| COc1ccc(C2Sc3ccccc3N=C3C2=C(O)c2ccccc23)cc1 (stereo not given) | -31 | 61.1 | 53.5 | 34.6 | -11 | -8 |

Shown comma-delimited: part of the list above.
Structure (SMILES),"hypnozoite quantity inhibition [1, 4]","hypnozoite quantity inhibition [1, 5]","schizont net growth area inhibition [2, 4]","schizont net growth area inhibition [2, 5]","hepatic nuclei reduction [3, 4] [%]","hepatic nuclei reduction [3, 5] [%]"
COc1ccc(CN2CCCC(C(=O)c3ccc(C(F)(F)F)cc3)C2)c(O)c1 (stereo not given),-32.2,-33.5,-11.3,20.2,-3,-5
FC(F)(F)c1cnc(Sc2nnc(-c3ccncc3)o2)c(Cl)c1,-45,-43,27.8,-22.2,-10,0
